# The other results are listed elsewhere or left out.
# Legend:
# Assay in all cases: glycan array binding signal (z-score within array); higher = stronger binding
# Settings in all cases: glycan notation: IUPAC condensed, linker removed
# [1] = target: Gal(a1-6)Glc
# Method in brief: (§1)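 From the Consortium for Functional Glycomics database, 3228 arrays were curated, keeping only those whose protein sequence was available. Binding is given as a within-array Z-score averaged across arrays sharing a protein sequence and across linkers. Negative Z-scores can be read as non-binding.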
# [2] = target: Gal(b1-2)Gal
# Method in brief: as §1
# [3] = target: Gal(b1-3)Gal
# Method in brief: as §1
# [4] = target: Gal(b1-3)Gal(b1-4)GlcNAc
# Method in brief: as §1
# [5] = target: Gal(b1-3)GalNAc
# Method in brief: as §1
# [6] = target: Gal(b1-3)GalNAc(a1-3)[Fuc(a1-2)]Gal(b1-4)Glc
# Method in brief: as §1
# [7] = target: Gal(b1-3)GalNAc(a1-3)[Fuc(a1-2)]Gal(b1-4)GlcNAc
# Method in brief: as §1
# [8] = target: Gal(b1-3)GalNAc(b1-3)Gal
# Method in brief: as §1
# [9] = target: Gal(b1-3)GalNAc(b1-3)Gal(a1-4)Gal(b1-4)Glc
# Method in brief: as §1
# [10] = target: Gal(b1-3)GalNAc(b1-4)Gal(b1-4)Glc
# Method in brief: as §1
# [11] = target: Gal(b1-3)GalNAc(b1-4)[Neu5Ac(a2-3)]Gal(b1-4)Glc
# Method in brief: as §1
# [12] = target: Gal(b1-3)GlcNAc
# Method in brief: as §1
# [13] = target: Gal(b1-3)GlcNAc(a1-3)Gal(b1-4)GlcNAc
# Method in brief: as §1
# [14] = target: Gal(b1-3)GlcNAc(a1-6)Gal(b1-4)GlcNAc
# Method in brief: as §1
# [15] = target: Gal(b1-3)GlcNAc(b1-2)Man
# Method in brief: as §1
# [16] = target: Gal(b1-3)GlcNAc(b1-2)Man(a1-3)[Gal(b1-3)GlcNAc(b1-2)Man(a1-6)]Man(b1-4)GlcNAc(b1-4)GlcNAc
# Method in brief: as §1
# [17] = target: Gal(b1-3)GlcNAc(b1-2)Man(a1-3)[Gal(b1-3)GlcNAc(b1-2)Man(a1-6)]Man(b1-4)GlcNAc(b1-4)[Fuc(a1-6)]GlcNAc
# Method in brief: as §1
# [18] = target: Gal(b1-3)GlcNAc(b1-2)Man(a1-3)[GlcNAc(b1-4)][Gal(b1-3)GlcNAc(b1-2)Man(a1-6)]Man(b1-4)GlcNAc(b1-4)GlcNAc
# Method in brief: as §1
# [19] = target: Gal(b1-3)GlcNAc(b1-2)[Gal(b1-3)GlcNAc(b1-6)]Man(a1-6)[Gal(b1-3)GlcNAc(b1-2)Man(a1-3)]Man(b1-4)GlcNAc(b1-4)GlcNAc
# Method in brief: as §1
# [20] = target: Gal(b1-3)GlcNAc(b1-3)Gal(b1-3)GlcNAc
# Method in brief: as §1
# [21] = target: Gal(b1-3)GlcNAc(b1-3)Gal(b1-4)Glc
# Method in brief: as §1
# [22] = target: Gal(b1-3)GlcNAc(b1-3)Gal(b1-4)GlcNAc
# Method in brief: as §1
# [23] = target: Gal(b1-3)GlcNAc(b1-3)Gal(b1-4)GlcNAc(b1-2)Man(a1-3)[Gal(b1-3)GlcNAc(b1-3)Gal(b1-4)GlcNAc(b1-2)Man(a1-6)]Man(b1-4)GlcNAc(b1-4)GlcNAc
# Method in brief: as §1
# [24] = target: Gal(b1-3)GlcNAc(b1-3)Gal(b1-4)GlcNAc(b1-2)[Gal(b1-3)GlcNAc(b1-3)Gal(b1-4)GlcNAc(b1-6)]Man(a1-6)[Gal(b1-3)GlcNAc(b1-3)Gal(b1-4)GlcNAc(b1-2)Man(a1-3)]Man(b1-4)GlcNAc(b1-4)[Fuc(a1-6)]GlcNAc
# Method in brief: as §1
# [25] = target: Gal(b1-3)GlcNAc(b1-3)Gal(b1-4)GlcNAc(b1-3)Gal(b1-4)GlcNAc(b1-2)[Gal(b1-3)GlcNAc(b1-3)Gal(b1-4)GlcNAc(b1-3)Gal(b1-4)GlcNAc(b1-6)]Man(a1-6)[Gal(b1-3)GlcNAc(b1-3)Gal(b1-4)GlcNAc(b1-3)Gal(b1-4)GlcNAc(b1-2)Man(a1-3)]Man(b1-4)GlcNAc(b1-4)[Fuc(a1-6)]GlcNAc
# Method in brief: as §1
# [26] = target: Gal(b1-3)GlcNAc(b1-3)Gal(b1-4)GlcNAc(b1-6)[Gal(b1-3)GlcNAc(b1-3)]Gal(b1-4)Glc
# Method in brief: as §1
# [27] = target: Gal(b1-3)GlcNAc(b1-3)Gal(b1-4)[Fuc(a1-3)]GlcNAc
# Method in brief: as §1
# [28] = target: Gal(b1-3)GlcNAc(b1-3)Gal(b1-4)[Fuc(a1-3)]GlcNAc(b1-6)[Gal(b1-3)GlcNAc(b1-3)]Gal(b1-4)Glc
# Method in brief: as §1
# [29] = target: Gal(b1-3)GlcNAc(b1-3)GalNAc
# Method in brief: as §1
# [30] = target: Gal(b1-3)GlcNAc(b1-6)Gal(b1-4)GlcNAc
# Method in brief: as §1
# [31] = target: Gal(b1-3)GlcNAc(b1-6)GalNAc
# Method in brief: as §1
# [32] = target: Gal(b1-3)GlcNAc(b1-6)[Gal(b1-3)]GalNAc
# Method in brief: as §1
# [33] = target: Gal(b1-3)GlcNAc6S
# Method in brief: as §1
# [34] = target: Gal(b1-3)[Fuc(a1-4)]GlcNAc
# Method in brief: as §1
# [35] = target: Gal(b1-3)[Fuc(a1-4)]GlcNAc(b1-2)Man
# Method in brief: as §1
# [36] = target: Gal(b1-3)[Fuc(a1-4)]GlcNAc(b1-2)Man(a1-3)[Gal(b1-3)[Fuc(a1-4)]GlcNAc(b1-2)Man(a1-6)]Man(b1-4)GlcNAc(b1-4)[Fuc(a1-6)]GlcNAc
# Method in brief: as §1
# [37] = target: Gal(b1-3)[Fuc(a1-4)]GlcNAc(b1-3)Gal(b1-3)[Fuc(a1-4)]GlcNAc
# Method in brief: as §1
binder,measurement,setting,value
"RsaA-N-term (Caulobacter crescentus), P35828 (protein) MAYTTAQLVTAYTNANLGKAPDAATTLTLDAYATQTQTGGLSDAAALTNTLKLVNSTTAVAIQTYQFFTGVAPSAAGLDFLVDSTTNTNDLNDAYYSKFAQENRFINFSINLATGAGAGATAFAAAYTGVSYAQTVATAYDKIIGNAVATAAGVDVAAAVAFLSRQANIDYLTAFVRANTPFTAAADIDLAVKAALIGTILNAATVSGIGGYATATAAMINDLSDGALSTDNAAGVNLFTAYPSSGVSGSTLSLTTGTDTLTGTANNDTFVAGEVAGDGSGWSHPQFEKGG",glycan array binding signal (z-score),[1],-0.066
same,glycan array binding signal (z-score),[2],0.282
same,glycan array binding signal (z-score),[3],-0.381
same,glycan array binding signal (z-score),[4],-0.156
same,glycan array binding signal (z-score),[5],-0.009
same,glycan array binding signal (z-score),[6],0.022
same,glycan array binding signal (z-score),[7],-0.152
same,glycan array binding signal (z-score),[8],0.809
same,glycan array binding signal (z-score),[9],-0.037
same,glycan array binding signal (z-score),[10],0.473
same,glycan array binding signal (z-score),[11],-0.359
same,glycan array binding signal (z-score),[12],-0.478
same,glycan array binding signal (z-score),[13],0.874
same,glycan array binding signal (z-score),[14],-0.12
same,glycan array binding signal (z-score),[15],-0.66
same,glycan array binding signal (z-score),[16],0.96
same,glycan array binding signal (z-score),[17],-0.118
same,glycan array binding signal (z-score),[18],1.77
same,glycan array binding signal (z-score),[19],0.045
same,glycan array binding signal (z-score),[20],-1.48
same,glycan array binding signal (z-score),[21],-0.55
same,glycan array binding signal (z-score),[22],0.211
same,glycan array binding signal (z-score),[23],0.124
same,glycan array binding signal (z-score),[24],0.788
same,glycan array binding signal (z-score),[25],0.909
same,glycan array binding signal (z-score),[26],-1.44
same,glycan array binding signal (z-score),[27],0.064
same,glycan array binding signal (z-score),[28],-0.531
same,glycan array binding signal (z-score),[29],1.8
same,glycan array binding signal (z-score),[30],0.088
same,glycan array binding signal (z-score),[31],0.291
same,glycan array binding signal (z-score),[32],-0.25
same,glycan array binding signal (z-score),[33],-1.06
same,glycan array binding signal (z-score),[34],-0.254
same,glycan array binding signal (z-score),[35],2.17
same,glycan array binding signal (z-score),[36],0.463
same,glycan array binding signal (z-score),[37],0.149

# Looked up one by one from the entries so far:
binder,measurement,setting,value
"RsaA-N-term (Caulobacter crescentus), P35828 (protein) MAYTTAQLVTAYTNANLGKAPDAATTLTLDAYATQTQTGGLSDAAALTNTLKLVNSTTAVAIQTYQFFTGVAPSAAGLDFLVDSTTNTNDLNDAYYSKFAQENRFINFSINLATGAGAGATAFAAAYTGVSYAQTVATAYDKIIGNAVATAAGVDVAAAVAFLSRQANIDYLTAFVRANTPFTAAADIDLAVKAALIGTILNAATVSGIGGYATATAAMINDLSDGALSTDNAAGVNLFTAYPSSGVSGSTLSLTTGTDTLTGTANNDTFVAGEVAGDGSGWSHPQFEKGG",glycan array binding signal (z-score),[30],0.088
same,glycan array binding signal (z-score),[3],-0.381

# Source: the supplement of paper PMC8728848
